Experiment: Retention on artificial surfaces under blood perfusion, all tubing
Details: 6 hours blood contact

CCCCCCCCCCCCCCCCCCCCCCN1C(=CC=CC2=[N+](CCCCCCCCCCCCCC)c3ccccc3C2(C)C)C(C)(C)c2cc([125I])ccc21 [Compound 12, N-docosanyl-N'-tetradecyl-5-iodo-3,3,3',3'-tetramethylindocarbocyanine chloride]
Average retention on tubing: > 50%

Source: US5667764A, “Compounds, compositions and methods for binding bio-affecting substances to surface membranes of bio-particles” (Zynaxis, Inc., priority 1992, dated 1997)
